In article PMC5235353 one finds binding data, which are given here for three molecules.

No constants are given. Whether binding was seen depends on the method and setting. In cells and extracts the contact can be indirect. Binding can be weak; no strength is given. For part of these data: Tags and fused reporters may be left off the sequences shown.

In test [1] the target is GST-DIC (dynein intermediate chain fused to GST). The test can be described thus: pull-down; ~1 μg GST-DIC on glutathione-Sepharose beads added to His-Snapin lysates, 3 hr at 4°C, with rising Aβ1-42 (from 0.2 μM), same amount of Snapin and DIC; immunoblot; only the target purified.
A further test has as its target GFP-DIC. As to the kind of experiment: co-IP; 600 μg COS7 cell lysates, cells expressing WT hAPP or mutant hAPP^swe; TBS with 0.1% Triton X-100, overnight at 4°C, Protein A-Sepharose; immunoblot.
Test [2] has as its target GST-DIC (dynein intermediate chain fused to GST). As to the kind of experiment: pull-down; ~1 μg GST-DIC on glutathione-Sepharose beads added to 2 mg light membrane fraction of mouse brain, with or without 2 μM oligomeric Aβ1-42, overnight at 4°C, washed with TBS; immunoblot; only the target purified.

B1: His-Snapin (protein, UniProt O95295 1-136)
chain: MAGAGSAAVSGAGTPVAGPTGRDLFAEGLLEFLRPAVQQLDSHVHAVRESQVELREQIDNLATELCRINEDQKVALDLDPYVKKLLNARRRVVLVNNILQNAQERLRRLNHSVAKETARRRAMLDSGIYPPGSPGK
As for B1, the binding result in test [1] is “binds”.

B2: Snapin (expressed in COS7 cells) (protein, UniProt O95295 1-136)
chain: MAGAGSAAVSGAGTPVAGPTGRDLFAEGLLEFLRPAVQQLDSHVHAVRESQVELREQIDNLATELCRINEDQKVALDLDPYVKKLLNARRRVVLVNNILQNAQERLRRLNHSVAKETARRRAMLDSGIYPPGSPGK
Take B2: the binding entry with GFP-DIC is listed as “binds”.

B3: Snapin, endogenous, on late endosomes/amphisomes of mouse brain light membrane fraction (protein, UniProt Q9Z266 1-136)
chain: MAAAGSAAVSGAGTPVAGPTGRDLFAEGLLEFLRPAVQQLDSHVHAVRESQVELREQIDNLATELCRINEDQKVALDLDPYVKKLLNARRRVVLVNNILQNAQERLRRLNHSVAKETARRRAMLDSGVYPPGSPSK
B3: the binding entry in test [2] was “binds”.
